In paper PMC10352482:
No constants are given. Whether binding was seen depends on the method and setting. In cells and extracts the contact can be indirect.

The chains behind the UniProt entries cited, without tags or fusion partners.
UniProt P01106: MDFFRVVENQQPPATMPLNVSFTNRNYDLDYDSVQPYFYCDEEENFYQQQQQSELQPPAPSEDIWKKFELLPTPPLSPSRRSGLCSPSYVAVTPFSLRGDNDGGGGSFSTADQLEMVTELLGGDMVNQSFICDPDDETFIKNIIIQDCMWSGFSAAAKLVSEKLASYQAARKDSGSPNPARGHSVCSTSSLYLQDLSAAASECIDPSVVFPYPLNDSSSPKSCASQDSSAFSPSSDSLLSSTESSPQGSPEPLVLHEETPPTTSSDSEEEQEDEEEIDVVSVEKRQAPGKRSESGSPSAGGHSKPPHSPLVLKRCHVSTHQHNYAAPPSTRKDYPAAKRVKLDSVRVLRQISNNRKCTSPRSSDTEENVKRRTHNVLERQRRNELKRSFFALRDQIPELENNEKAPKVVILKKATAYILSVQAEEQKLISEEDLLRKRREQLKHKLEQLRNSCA

Target: T1, F-ATP synthase inhibitory factor 1, endogenous in HEK293T cells (human (endogenous in HEK293T)) (UniProt Q9UII2)
T1 sequence: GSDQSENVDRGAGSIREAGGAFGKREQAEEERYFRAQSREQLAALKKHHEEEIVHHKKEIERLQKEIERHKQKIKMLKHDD
Experiment: cross-linking; cross-linking by DTBP (cleavable by DTT) in isolated mitochondria from HEK293T cells; no data shown

For “c-Myc, endogenous in HEK293T cells (from UniProt P01106 1-454)”, the binding was “no binding”.
